# Assay results reported in PubChem BioAssay AID445 (National Center for Advancing Translational Sciences (NCATS), 2006).
# This is one part of the list. Further columns of the screen follow, without active or inactive calls. Compounds called inactive in the main read-out are mostly missing here. Potencies come from curve fits of mixed quality, noted in brackets.
# Assay: IkB Signaling
# Conditions: ABC-DLBCL IkBa-CBG/CBR dual luciferase ratio (green luciferase fused to IkBa over red control in OCI-Ly3 lymphoma cells), 4 h; measured here: control luc red channel unless noted
# Method in brief: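 Curves were fitted separately to fusion (green), unfused (red) and ratio luminescence, then classed by r2, magnitude and activity. Cells: OCI-Ly3, 4 h compound plus doxycycline at 37C; 10 uM MG-132 defined full response.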
row,SMILES,AC50
1,Cc1ccccc1CNC(=O)Cc1ccc(NC(=O)N2CCCCc3ccccc32)cc1,"39.8 µM [falling, single point]"
2,CCOc1ccc(C(=O)c2cn(CC(=O)Nc3cccc(OC)c3)c3cc4c(cc3c2=O)OCCO4)cc1,"15.8 µM [falling, partial curve]"
3,COc1ccccc1CNC(=O)C(C)n1ccc2cc(S(=O)(=O)N3CCCC3)ccc21 (stereo unspecified),"10 µM [falling, partial curve]"
4,COc1ccc(CNC(=O)c2ccc3nc(CCc4ccccc4)oc3c2)cc1,"0.0316 µM [rising, full curve]"
5,Cc1ccc(NC(=O)CSc2nc3c([nH]c4ccccc43)c(=O)n2-c2ccccc2)cc1Cl,"31.6 µM [falling, partial curve, poor fit]"
6,Cc1ccc(C2Nc3cc(C)c(C)cc3-n3c(-c4ccccc4)c4c(=O)n(C)c(=O)n(C)c4c32)o1 (stereo unspecified),"10 µM [falling, partial curve]"
7,Cc1cccc(N2CCN(C(=O)C3CCN(C(=O)c4cc5sccc5n4C)CC3)CC2)c1C,"31.6 µM [falling, single point]"
8,COc1cc(-c2nc(SCC(=O)Nc3ccc(C)cc3)c(-c3ccc(F)cc3)[nH]2)cc(OC)c1OC,"3.98 µM [falling, full curve]"
9,COc1ccccc1N1CCN(C(=O)c2cnn(-c3cccc(Cl)c3)c2C2CCN(C(=O)OC(C)(C)C)CC2)CC1,"15.8 µM [falling, partial curve]"
10,CCc1ccccc1NC(=O)c1cc(S(=O)(=O)N2CCc3ccccc32)ccc1F,"10 µM [falling, partial curve]"
11,COc1ccccc1CNc1nc(-c2ccco2)nn1C(=O)c1cc(OC)c(OC)c(OC)c1,"25.1 µM [falling, single point]"
12,Cc1ccccc1CNC(=O)C1=Cc2ccccc2OC1,"39.8 µM [falling, single point]"
13,Cc1ccc(-c2nnc(Nc3ccc(OC(F)(F)Cl)cc3)c3ccccc23)cc1S(=O)(=O)NC(C)(C)CO,"7.94 µM [falling, partial curve]"
14,Cc1nc2scc(C)n2c(=O)c1S(=O)(=O)Nc1ccc(N2CCN(S(C)(=O)=O)CC2)cc1,"6.31 µM [falling, partial curve]"
15,CCCCn1c(=N)c(S(=O)(=O)c2ccc(C)cc2)cc2c(=O)n3cc(C)ccc3nc21,"0.0316 µM [rising, full curve, poor fit]"
16,CN(C)C1(CNC(=O)COc2ccc([N+](=O)[O-])cc2)CCCCC1,"2.51 µM [rising, partial curve]"

# Numbers 11–12 from above:
row,SMILES,AC50
11,COc1ccccc1CNc1nc(-c2ccco2)nn1C(=O)c1cc(OC)c(OC)c(OC)c1,"25.1 µM [falling, single point]"
12,Cc1ccccc1CNC(=O)C1=Cc2ccccc2OC1,"39.8 µM [falling, single point]"
